# In PMC5433425 (PeerJ, 2017):
# Further values from the same series stand in other lists.
# Assays:
# Experiment in all cases: EtBr efflux by real-time fluorometry
# [1] = tested on: E. coli AG100; conditions: 80 µM
# [2] = tested on: E. coli AG100A; conditions: 20 µM, + glucose
# [3] = tested on: E. coli AG100tet; conditions: 80 µM, + glucose
smiles,measurement,setting,value
"CN(C)CCCN1c2ccccc2Sc2ccc(Cl)cc21 [CPZ, chlorpromazine]",EtBr fluorescence (Channel Cycling A.530/585hp),"[1]; cycle 42, without glucose",38.1996
same,EtBr fluorescence (Channel Cycling A.530/585hp),"[1]; cycle 43, + glucose",37.9166
same,EtBr fluorescence (Channel Cycling A.530/585hp),"[1]; cycle 43, without glucose",39.3026
same,EtBr fluorescence (Channel Cycling A.530/585hp),"[1]; cycle 44, + glucose",38.1566
same,EtBr fluorescence (Channel Cycling A.530/585hp),"[1]; cycle 44, without glucose",39.0707
same,EtBr fluorescence (Channel Cycling A.530/585hp),"[1]; cycle 45, + glucose",37.8682
same,EtBr fluorescence (Channel Cycling A.530/585hp),"[1]; cycle 45, without glucose",39.652
same,EtBr fluorescence (Channel Cycling A.530/585hp),"[1]; cycle 46, + glucose",38.1527
same,EtBr fluorescence (Channel Cycling A.530/585hp),"[1]; cycle 46, without glucose",39.8398
same,EtBr fluorescence (Channel Cycling A.530/585hp),"[1]; cycle 47, + glucose",38.1024
same,EtBr fluorescence (Channel Cycling A.530/585hp),"[1]; cycle 47, without glucose",39.9177
same,EtBr fluorescence (Channel Cycling A.530/585hp),"[1]; cycle 48, + glucose",38.2927
same,EtBr fluorescence (Channel Cycling A.530/585hp),"[1]; cycle 48, without glucose",40.7272
same,EtBr fluorescence (Channel Cycling A.530/585hp),"[1]; cycle 49, + glucose",38.1144
same,EtBr fluorescence (Channel Cycling A.530/585hp),"[1]; cycle 49, without glucose",41.1866
same,EtBr fluorescence (Channel Cycling A.530/585hp),"[1]; cycle 50, + glucose",38.0575
same,EtBr fluorescence (Channel Cycling A.530/585hp),"[1]; cycle 50, without glucose",41.1014
same,EtBr fluorescence (Channel Cycling A.530/585hp),"[1]; cycle 51, + glucose",38.3115
same,EtBr fluorescence (Channel Cycling A.530/585hp),"[1]; cycle 51, without glucose",41.3934
same,EtBr fluorescence (Channel Cycling A.530/585hp),"[1]; cycle 52, + glucose",38.3484
same,EtBr fluorescence (Channel Cycling A.530/585hp),"[1]; cycle 52, without glucose",42.2452
same,EtBr fluorescence (Channel Cycling A.530/585hp),"[1]; cycle 53, + glucose",38.0995
same,EtBr fluorescence (Channel Cycling A.530/585hp),"[1]; cycle 53, without glucose",42.5637
same,EtBr fluorescence (Channel Cycling A.530/585hp),"[1]; cycle 54, + glucose",38.0306
same,EtBr fluorescence (Channel Cycling A.530/585hp),"[1]; cycle 54, without glucose",42.9741
same,EtBr fluorescence (Channel Cycling A.530/585hp),"[1]; cycle 55, + glucose",38.6248
same,EtBr fluorescence (Channel Cycling A.530/585hp),"[1]; cycle 55, without glucose",43.3288
same,EtBr fluorescence (Channel Cycling A.530/585hp),"[1]; cycle 56, + glucose",38.4331
same,EtBr fluorescence (Channel Cycling A.530/585hp),"[1]; cycle 56, without glucose",43.4008
same,EtBr fluorescence (Channel Cycling A.530/585hp),"[1]; cycle 57, + glucose",38.2885
same,EtBr fluorescence (Channel Cycling A.530/585hp),"[1]; cycle 57, without glucose",43.717
same,EtBr fluorescence (Channel Cycling A.530/585hp),"[1]; cycle 58, + glucose",38.3682
same,EtBr fluorescence (Channel Cycling A.530/585hp),"[1]; cycle 58, without glucose",44.2229
same,EtBr fluorescence (Channel Cycling A.530/585hp),"[1]; cycle 59, + glucose",38.1533
same,EtBr fluorescence (Channel Cycling A.530/585hp),"[1]; cycle 59, without glucose",44.7748
same,EtBr fluorescence (Channel Cycling A.530/585hp),"[1]; cycle 60, + glucose",37.8112
same,EtBr fluorescence (Channel Cycling A.530/585hp),"[1]; cycle 60, without glucose",45.3609
same,EtBr fluorescence (Channel Cycling A.530/585hp),"[1]; cycle 61, + glucose",37.7385
same,EtBr fluorescence (Channel Cycling A.530/585hp),"[1]; cycle 61, without glucose",45.87
same,EtBr fluorescence (Channel Cycling A.530/585hp),[2]; cycle 4,3.646
same,EtBr fluorescence (Channel Cycling A.530/585hp),[2]; cycle 5,3.591
same,EtBr fluorescence (Channel Cycling A.530/585hp),[2]; cycle 6,3.585
same,EtBr fluorescence (Channel Cycling A.530/585hp),[2]; cycle 7,3.6117
same,EtBr fluorescence (Channel Cycling A.530/585hp),[2]; cycle 8,3.567
same,EtBr fluorescence (Channel Cycling A.530/585hp),[2]; cycle 45,3.83
same,EtBr fluorescence (Channel Cycling A.530/585hp),[2]; cycle 46,3.859
same,EtBr fluorescence (Channel Cycling A.530/585hp),[2]; cycle 47,3.941
same,EtBr fluorescence (Channel Cycling A.530/585hp),[2]; cycle 48,3.831
same,EtBr fluorescence (Channel Cycling A.530/585hp),[2]; cycle 49,3.802
same,EtBr fluorescence (Channel Cycling A.530/585hp),[2]; cycle 50,3.904
same,EtBr fluorescence (Channel Cycling A.530/585hp),[2]; cycle 51,3.913
same,EtBr fluorescence (Channel Cycling A.530/585hp),[2]; cycle 52,3.836
same,EtBr fluorescence (Channel Cycling A.530/585hp),[2]; cycle 53,3.751
same,EtBr fluorescence (Channel Cycling A.530/585hp),[2]; cycle 54,3.734
same,EtBr fluorescence (Channel Cycling A.530/585hp),[2]; cycle 55,3.755
same,EtBr fluorescence (Channel Cycling A.530/585hp),[2]; cycle 56,3.914
same,EtBr fluorescence (Channel Cycling A.530/585hp),[2]; cycle 57,3.757
same,EtBr fluorescence (Channel Cycling A.530/585hp),[2]; cycle 58,3.7741
same,EtBr fluorescence (Channel Cycling A.530/585hp),[2]; cycle 59,3.81
same,EtBr fluorescence (Channel Cycling A.530/585hp),[2]; cycle 60,3.797
same,EtBr fluorescence (Channel Cycling A.530/585hp),[2]; cycle 61,3.749
same,"Fluorescence raw data, Channel Cycling A.530/585hp",[3]; cycle 4,6.339
same,"Fluorescence raw data, Channel Cycling A.530/585hp",[3]; cycle 5,6.387
same,"Fluorescence raw data, Channel Cycling A.530/585hp",[3]; cycle 6,6.286
same,"Fluorescence raw data, Channel Cycling A.530/585hp",[3]; cycle 7,6.432
same,"Fluorescence raw data, Channel Cycling A.530/585hp",[3]; cycle 8,6.329
same,"Fluorescence raw data, Channel Cycling A.530/585hp",[3]; cycle 45,6.719
same,"Fluorescence raw data, Channel Cycling A.530/585hp",[3]; cycle 46,6.778
same,"Fluorescence raw data, Channel Cycling A.530/585hp",[3]; cycle 47,6.757
same,"Fluorescence raw data, Channel Cycling A.530/585hp",[3]; cycle 48,6.7446
same,"Fluorescence raw data, Channel Cycling A.530/585hp",[3]; cycle 49,6.678
same,"Fluorescence raw data, Channel Cycling A.530/585hp",[3]; cycle 50,6.568
same,"Fluorescence raw data, Channel Cycling A.530/585hp",[3]; cycle 51,6.617
same,"Fluorescence raw data, Channel Cycling A.530/585hp",[3]; cycle 52,6.557
same,"Fluorescence raw data, Channel Cycling A.530/585hp",[3]; cycle 53,6.518
same,"Fluorescence raw data, Channel Cycling A.530/585hp",[3]; cycle 54,6.561
same,"Fluorescence raw data, Channel Cycling A.530/585hp",[3]; cycle 55,6.5737
same,"Fluorescence raw data, Channel Cycling A.530/585hp",[3]; cycle 56,6.573
same,"Fluorescence raw data, Channel Cycling A.530/585hp",[3]; cycle 57,6.507
same,"Fluorescence raw data, Channel Cycling A.530/585hp",[3]; cycle 58,6.443
same,"Fluorescence raw data, Channel Cycling A.530/585hp",[3]; cycle 59,6.441
same,"Fluorescence raw data, Channel Cycling A.530/585hp",[3]; cycle 60,6.434
same,"Fluorescence raw data, Channel Cycling A.530/585hp",[3]; cycle 61,6.331
